# The supplement of paper PMC8047044
# Counter-ions that a name gives are not always drawn. The list shows a part of the results. Many values rest on one well or one pass, so single values are uncertain.
# System: Neuro-2a
# Assay: neurite formation score, plate-normalized to DMSO control mean 5.04 (score (0-8 scale)); higher = more or longer neurites
# Settings: 10 µM
row,SMILES,neurite formation score
1,CNC(=O)c1c(F)cccc1Nc1nc(Nc2cc3c(cc2OC)CCN3C(=O)CN(C)C)nc2[nH]ccc12,4.76
2,c1cn2cc(-c3ccc4cn[nH]c4c3)nc(Nc3ccc(N4CCOCC4)cc3)c2n1,4.86
3,CCN1CCN(c2ccc(Nc3cc(N(C)C(=O)Nc4c(Cl)c(OC)cc(OC)c4Cl)ncn3)cc2)CC1,4.42
4,CC(C)(C)n1nc(Cc2cccc3ccccc23)c2c(N)ncnc21,2.76
5,COc1cc2ncc(-c3ccccc3)nc2cc1OC [Tyrphostin AG 1296],4.88
6,N#CCNC(=O)c1ccc(-c2ccnc(Nc3ccc(N4CCOCC4)cc3)n2)cc1 [CYT387 sulfate salt],5.74
7,CCOc1cc(C(=O)N2CCC(N3CCN(C)CC3)CC2)ccc1Nc1ncc2c(n1)N(C1CCCC1)c1ccccc1C(=O)N2C,2.41
8,Cn1c(=O)n(-c2ccc(C(C)(C)C#N)cc2)c2c3cc(-c4cnc5ccccc5c4)ccc3ncc21,3.85
9,CCn1c(N)c(C(=O)NC)c(=O)c2ccc(C#CC(C)(O)COC)nc21 (centres undefined),5.19
10,N#Cc1c(O)c2c(-c3ccc(-c4ccccc4O)cc3)csc2[nH]c1=O,4.08
11,Cc1cnc(Nc2ccc(F)cc2Cl)nc1-c1c[nH]c(C(=O)N[C@H](CO)c2cccc(Cl)c2)c1,3.08
12,OCCn1cc(-c2cnc3nnn(Cc4ccc5ncccc5c4)c3n2)cn1,4.74
13,O=C(Nc1ccc(CN2CCOCC2)cc1)c1ccc(-c2cccc(Cl)c2)o1,4.19
14,Cc1cnc(Nc2ccc(N3CCN(C)CC3)cc2)nc1Nc1cccc(S(=O)(=O)NC(C)(C)C)c1,1.41
15,O=C1NC(=O)C(c2cnc3ccccn23)=C1c1cn2c3c(cc(F)cc13)CN(C(=O)N1CCCCC1)CC2,1.09
16,O=C1c2ccccc2-c2n[nH]c3cccc1c23,1.74
17,COc1cccc(-c2cc(=O)c3ccccc3o2)c1N,4.21
18,COc1cc2ncnc(Nc3cccc(Br)c3)c2cc1OC,4.42
19,NCC(=O)Nc1ccc(-n2nc(C(F)(F)F)cc2-c2ccc3c(ccc4ccccc43)c2)cc1,3.88
20,O=C(Nc1cccc(Cl)c1)Nc1ncc(CCNc2ncnc3ccsc23)s1 [SNS-314 Mesylate],0.077

row,SMILES,neurite formation score
1,Cn1cnc2c(F)c(Nc3ccc(Br)cc3Cl)c(C(=O)NOCCO)cc21 [AZD6244 (Selumetinib)],5.19
2,CN1C/C=C/CCOc2cccc(c2)-c2ccnc(n2)Nc2cccc(c2)C1,2.76
3,CN(C)C/C=C/C(=O)Nc1cc2c(Nc3ccc(F)c(Cl)c3)ncnc2cc1O[C@H]1CCOC1 [Afatinib dimaleate],2.54
4,Cc1ccc(-c2csc3ncnc(SCCC(=O)O)c23)cc1,3.41
5,COC(=O)Nc1nc2cc(C(=O)c3cccs3)ccc2[nH]1 [Nocodazole],1.76
6,"CO[C@H]1C[C@@H]2CC[C@@H](C)[C@@](O)(O2)C(=O)C(=O)N2CCCC[C@H]2C(=O)O[C@H]([C@H](C)C[C@@H]2CC[C@@H](OP(C)(C)=O)[C@H](OC)C2)CC(=O)[C@H](C)/C=C(\C)[C@@H](O)[C@@H](OC)C(=O)[C@H](C)C[C@H](C)/C=C/C=C/C=C/1C [Ridaforolimus (Deforolimus, MK-8669)]",1.19
7,Oc1ccc(Nc2nc(-c3ccc(Cl)cc3)cs2)cc1,1.19
8,Cc1c(Cn2c(C)nc3c(C(=O)O)cc(N4CCOCC4)cc32)cccc1C(F)(F)F,4.86
9,NC(=O)c1ccc2nc(-c3ccc(Oc4ccc(Cl)cc4)cc3)[nH]c2c1,5.09
10,CNC(=O)c1ccccc1Nc1nc(Nc2ccc(N3CCOCC3)cc2OC)ncc1Cl,2.43
11,Cn1cnc(=N)c2[nH]cnc21 [3-Methyladenine],4.19
12,CNC(=O)c1nn(C)c2c1C(C)(C)Cc1cnc(Nc3ccc(N4CCN(C)CC4)cc3)nc1-2,1.43
13,CC(C)(C)n1nc(-c2ccc(Cl)cc2)c2c(N)ncnc21,3.85
14,O=C(Nc1cccc(Nc2ncc(Br)c(NCCc3cnc[nH]3)n2)c1)N1CCCC1,1.88
15,C[C@H](NC(=O)/C(C#N)=C/c1cccc(Br)n1)c1ccccc1,0.41
16,O=C(c1ccc(F)c(F)c1Nc1ccc(I)cc1F)N1CC(O)([C@@H]2CCCCN2)C1 [Cobimetinib],0.209
17,COc1ccc(-c2nc(N3CCOCC3)c3sc(CN(C)c4ncc(C(=O)NO)cn4)cc3n2)cn1,1.74
18,"S=C(NCc1ccc2c(c1)OCO2)N1CCN(c2ncnc3c2oc2ccccc23)CC1 [Amuvatinib (MP-470, HPK 56)]",2.41
19,COc1ccc(Cl)cc1NC(=O)Nc1cc(C)nc2ccccc12,1.54

# No new results follow: nine of the compounds above.
row,SMILES,neurite formation score
3,CN(C)C/C=C/C(=O)Nc1cc2c(Nc3ccc(F)c(Cl)c3)ncnc2cc1O[C@H]1CCOC1 [Afatinib dimaleate],2.54
4,Cc1ccc(-c2csc3ncnc(SCCC(=O)O)c23)cc1,3.41
5,COC(=O)Nc1nc2cc(C(=O)c3cccs3)ccc2[nH]1 [Nocodazole],1.76
6,"CO[C@H]1C[C@@H]2CC[C@@H](C)[C@@](O)(O2)C(=O)C(=O)N2CCCC[C@H]2C(=O)O[C@H]([C@H](C)C[C@@H]2CC[C@@H](OP(C)(C)=O)[C@H](OC)C2)CC(=O)[C@H](C)/C=C(\C)[C@@H](O)[C@@H](OC)C(=O)[C@H](C)C[C@H](C)/C=C/C=C/C=C/1C [Ridaforolimus (Deforolimus, MK-8669)]",1.19
7,Oc1ccc(Nc2nc(-c3ccc(Cl)cc3)cs2)cc1,1.19
8,Cc1c(Cn2c(C)nc3c(C(=O)O)cc(N4CCOCC4)cc32)cccc1C(F)(F)F,4.86
9,NC(=O)c1ccc2nc(-c3ccc(Oc4ccc(Cl)cc4)cc3)[nH]c2c1,5.09
10,CNC(=O)c1ccccc1Nc1nc(Nc2ccc(N3CCOCC3)cc2OC)ncc1Cl,2.43
11,Cn1cnc(=N)c2[nH]cnc21 [3-Methyladenine],4.19
